No constants are given. Whether binding was seen depends on the method and setting. In cells and extracts the contact can be indirect. Some entries that bind do so weakly or less than the wild type.

Protein sequences, listed by entry. Tags and fused reporters are not part of them.
UniProt P15924: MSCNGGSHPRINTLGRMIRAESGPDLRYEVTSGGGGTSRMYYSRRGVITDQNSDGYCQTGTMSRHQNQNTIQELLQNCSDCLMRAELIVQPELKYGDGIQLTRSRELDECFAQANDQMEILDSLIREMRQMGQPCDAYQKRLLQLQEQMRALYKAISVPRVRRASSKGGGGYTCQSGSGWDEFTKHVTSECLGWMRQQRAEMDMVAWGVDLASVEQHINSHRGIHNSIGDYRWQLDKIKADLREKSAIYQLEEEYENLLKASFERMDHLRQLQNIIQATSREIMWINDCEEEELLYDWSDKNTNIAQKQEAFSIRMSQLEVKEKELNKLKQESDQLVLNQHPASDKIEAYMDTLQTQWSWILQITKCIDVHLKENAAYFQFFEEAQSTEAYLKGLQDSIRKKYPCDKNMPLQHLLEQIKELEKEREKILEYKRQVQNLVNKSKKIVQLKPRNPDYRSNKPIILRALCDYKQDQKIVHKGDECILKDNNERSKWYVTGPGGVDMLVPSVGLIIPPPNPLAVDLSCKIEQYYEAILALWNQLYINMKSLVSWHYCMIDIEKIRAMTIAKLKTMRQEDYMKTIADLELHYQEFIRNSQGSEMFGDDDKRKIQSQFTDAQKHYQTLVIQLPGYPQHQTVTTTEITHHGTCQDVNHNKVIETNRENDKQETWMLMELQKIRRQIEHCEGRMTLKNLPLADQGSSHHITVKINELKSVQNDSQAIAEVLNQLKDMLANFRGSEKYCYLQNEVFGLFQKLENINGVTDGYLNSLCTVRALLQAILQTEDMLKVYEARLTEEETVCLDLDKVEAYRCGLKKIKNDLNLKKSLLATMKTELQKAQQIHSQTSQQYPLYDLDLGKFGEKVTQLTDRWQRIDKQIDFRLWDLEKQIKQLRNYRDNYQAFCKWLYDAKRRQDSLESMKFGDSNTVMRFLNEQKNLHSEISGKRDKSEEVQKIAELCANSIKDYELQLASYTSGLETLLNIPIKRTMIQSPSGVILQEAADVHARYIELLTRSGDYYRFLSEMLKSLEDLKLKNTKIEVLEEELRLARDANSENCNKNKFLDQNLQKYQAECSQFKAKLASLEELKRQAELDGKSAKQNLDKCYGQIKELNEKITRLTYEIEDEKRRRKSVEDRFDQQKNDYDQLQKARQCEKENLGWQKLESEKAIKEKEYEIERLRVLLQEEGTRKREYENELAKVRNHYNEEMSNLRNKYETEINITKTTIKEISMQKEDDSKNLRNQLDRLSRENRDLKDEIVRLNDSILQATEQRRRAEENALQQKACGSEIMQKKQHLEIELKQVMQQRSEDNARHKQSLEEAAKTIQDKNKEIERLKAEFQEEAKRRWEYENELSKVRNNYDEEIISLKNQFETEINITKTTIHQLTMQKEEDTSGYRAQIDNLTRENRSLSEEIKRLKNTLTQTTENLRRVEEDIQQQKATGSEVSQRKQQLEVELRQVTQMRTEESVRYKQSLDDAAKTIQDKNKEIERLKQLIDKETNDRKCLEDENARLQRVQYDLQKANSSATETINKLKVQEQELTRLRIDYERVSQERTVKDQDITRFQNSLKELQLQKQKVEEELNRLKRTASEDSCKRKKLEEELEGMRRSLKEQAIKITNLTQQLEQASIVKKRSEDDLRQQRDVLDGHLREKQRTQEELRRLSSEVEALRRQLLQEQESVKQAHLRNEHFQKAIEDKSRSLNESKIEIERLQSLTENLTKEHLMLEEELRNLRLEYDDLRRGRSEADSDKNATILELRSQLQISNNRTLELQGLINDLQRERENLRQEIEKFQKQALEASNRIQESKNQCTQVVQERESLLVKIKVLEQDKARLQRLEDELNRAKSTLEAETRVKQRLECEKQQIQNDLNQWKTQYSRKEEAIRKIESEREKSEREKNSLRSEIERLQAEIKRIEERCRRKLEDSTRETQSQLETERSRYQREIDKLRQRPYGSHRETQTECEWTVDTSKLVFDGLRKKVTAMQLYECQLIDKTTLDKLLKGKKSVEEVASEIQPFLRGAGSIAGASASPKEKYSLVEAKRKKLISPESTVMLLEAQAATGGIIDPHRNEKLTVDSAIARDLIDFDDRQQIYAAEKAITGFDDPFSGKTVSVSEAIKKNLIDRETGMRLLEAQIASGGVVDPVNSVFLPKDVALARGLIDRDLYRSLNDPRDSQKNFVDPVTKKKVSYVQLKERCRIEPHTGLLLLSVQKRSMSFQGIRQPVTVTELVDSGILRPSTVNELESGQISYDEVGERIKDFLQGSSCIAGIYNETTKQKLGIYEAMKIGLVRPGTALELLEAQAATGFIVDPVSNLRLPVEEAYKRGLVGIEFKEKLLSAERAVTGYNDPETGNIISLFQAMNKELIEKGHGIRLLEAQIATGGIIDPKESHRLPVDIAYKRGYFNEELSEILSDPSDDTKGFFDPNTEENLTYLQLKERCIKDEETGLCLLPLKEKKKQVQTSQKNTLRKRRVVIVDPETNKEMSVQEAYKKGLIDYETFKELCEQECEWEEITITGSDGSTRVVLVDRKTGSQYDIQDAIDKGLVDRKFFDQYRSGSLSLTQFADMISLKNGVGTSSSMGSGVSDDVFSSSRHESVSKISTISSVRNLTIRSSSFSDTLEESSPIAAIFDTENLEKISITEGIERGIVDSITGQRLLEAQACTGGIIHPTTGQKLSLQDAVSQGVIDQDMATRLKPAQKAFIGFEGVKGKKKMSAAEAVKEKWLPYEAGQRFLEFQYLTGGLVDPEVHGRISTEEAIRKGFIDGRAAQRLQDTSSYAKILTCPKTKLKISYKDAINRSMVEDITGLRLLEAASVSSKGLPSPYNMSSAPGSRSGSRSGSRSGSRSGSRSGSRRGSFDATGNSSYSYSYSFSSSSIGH

The target of assay [1] is desmoplakin (human (endogenous in SCC9, NHEK and human skin)) (UniProt P15924). The experiment in a line: proximity ligation; fixed human skin samples with antibodies to B55α and DP, compared with B55α antibody and IgG.
For assay [2] the target is unchanged. The experiment in a line: co-IP; endogenous DP precipitated with antibodies to DP's C-terminus or N-terminus from SCC9 and NHEK lysates (NP40 buffer: 10 mM Tris-HCl pH 8, 100 mM NaCl, 0.2% NP40, 10% glycerol), overnight at 4 °C; blotted for Dsg3 or B55α; IgG control.
Assay [3] shares this target. The assay is described as follows: proximity ligation; fixed SCC9 cells with antibodies to B55α and DP; cells transfected with siRNA against Scramble control, B55α or DP.
In assay [4] the target is desmoplakin (human (endogenous in SCC9, NHEK and human skin)), P15924. The assay is described as follows: co-IP; endogenous DP precipitated with antibodies to DP's C-terminus or N-terminus from SCC9 and NHEK lysates (NP40 buffer: 10 mM Tris-HCl pH 8, 100 mM NaCl, 0.2% NP40, 10% glycerol), overnight at 4 °C; blotted for Dsg3 or B55α; IgG control. Conditions: remark: other sources report otherwise.

Assay [5] concerns the target T1, PP2A regulatory subunit B55α (human (endogenous in SCC9, NHEK and human skin)) (UniProt P63151).
T1 sequence: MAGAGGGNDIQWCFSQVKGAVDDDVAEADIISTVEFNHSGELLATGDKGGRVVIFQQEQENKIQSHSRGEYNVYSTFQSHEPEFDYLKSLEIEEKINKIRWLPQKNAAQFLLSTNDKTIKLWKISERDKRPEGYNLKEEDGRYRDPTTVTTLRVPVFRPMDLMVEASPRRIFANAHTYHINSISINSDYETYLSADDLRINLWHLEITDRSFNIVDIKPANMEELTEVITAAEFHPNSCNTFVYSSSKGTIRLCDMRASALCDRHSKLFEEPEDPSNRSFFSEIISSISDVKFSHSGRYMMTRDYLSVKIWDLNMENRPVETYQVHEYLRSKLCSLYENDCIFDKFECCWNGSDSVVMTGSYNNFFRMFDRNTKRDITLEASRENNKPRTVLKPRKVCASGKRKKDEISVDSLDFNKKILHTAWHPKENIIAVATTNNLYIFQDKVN
The assay is described as follows: co-IP; endogenous B55α precipitated with anti-B55α antibody conjugated to agarose from SCC9 and NHEK lysates (NP40 buffer), overnight at 4 °C; blotted for DP or Dsg3.

B1: PP2A regulatory subunit B55α (protein, UniProt P63151 1-447)
chain: T1 sequence
Turning to B1, the binding entry in assay [1], in assay [2] and in assay [3] was “binds” each time.

B2: desmoglein 3, P32926 50-999 (protein)
chain: EWVKFAKPCREGEDNSKRNPIAKITSDYQATQKITYRISGVGIDQPPFGIFVVDKNTGDINITAIVDREETPSFLITCRALNAQGLDVEKPLILTVKILDINDNPPVFSQQIFMGEIEENSASNSLVMILNATDADEPNHLNSKIAFKIVSQEPAGTPMFLLSRNTGEVRTLTNSLDREQASSYRLVVSGADKDGEGLSTQCECNIKVKDVNDNFPMFRDSQYSARIEENILSSELLRFQVTDLDEEYTDNWLAVYFFTSGNEGNWFEIQTDPRTNEGILKVVKALDYEQLQSVKLSIAVKNKAEFHQSVISRYRVQSTPVTIQVINVREGIAFRPASKTFTVQKGISSKKLVDYILGTYQAIDEDTNKAASNVKYVMGRNDGGYLMIDSKTAEIKFVKNMNRDSTFIVNKTITAEVLAIDEYTGKTSTGTVYVRVPDFNDNCPTAVLEKDAVCSSSPSVVVSARTLNNRYTGPYTFALEDQPVKLPAVWSITTLNATSALLRAQEQIPPGVYHISLVLTDSQNNRCEMPRSLTLEVCQCDNRGICGTSYPTTSPGTRYGRPHSGRLGPAAIGLLLLGLLLLLLAPLLLLTCDCGAGSTGGVTGGFIPVPDGSEGTIHQWGIEGAHPEDKEITNICVPPVTANGADFMESSEVCTNTYARGTAVEGTSGMEMTTKLGAATESGGAAGFATGTVSGAASGFGAATGVGICSSGQSGTMRTRHSTGGTNKDYADGAISMNFLDSYFSQKAFACAEEDDGQEANDCLLIYDNEGADATGSPVGSVGCCSFIADDLDDSFLDSLGPKFKKLAEISLGVDGEGKEVQPPSKDSGYGIESCGHPIEVQQTGFVKCQTLSGSQGASALSTSGSVQPAVSIPDPLQHGNYLVTETYSASGSLVQPSTAGFDPLLTQNVIVTERVICPISSVPGNLAGPTQLRGSHTMLCTEDPCSRLI
On to B2, for which the binding entry in assay [4] is reported as “binds”.

B3: desmoglein 3 (protein, UniProt P32926 50-999)
chain: B2 chain
Regarding B3, the binding result in assay [5] is on record as “no binding”.

The record behind these values is publication PMC10404246.
